The list shows a part of the results. At the low end of the ranking the order means little.
What follows are sequences tested against T1, PUM1 PUF domain R1-QFR R2-VFQ R7-NPG S863Q + R864F + Q867R + N899V + Y900F + S1079N + N1080P + E1083G (UniProt Q14671). Conditions: yeast three-hybrid, YBZ-1, SC-Leu-His + 0.5 mM 3-AT, 4 days.
T1 sequence: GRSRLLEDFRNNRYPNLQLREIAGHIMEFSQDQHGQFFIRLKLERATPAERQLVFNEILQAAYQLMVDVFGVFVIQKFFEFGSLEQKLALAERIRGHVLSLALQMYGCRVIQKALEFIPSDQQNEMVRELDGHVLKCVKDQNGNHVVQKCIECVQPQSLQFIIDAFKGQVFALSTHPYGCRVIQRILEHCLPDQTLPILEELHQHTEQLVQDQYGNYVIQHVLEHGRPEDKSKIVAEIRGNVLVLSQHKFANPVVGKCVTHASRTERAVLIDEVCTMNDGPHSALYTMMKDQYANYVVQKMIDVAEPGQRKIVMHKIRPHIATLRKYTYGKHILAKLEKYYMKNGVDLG

Sequence | binding signal (log2 enrichment (interaction score))
GGCUAGAACUAGUGGAUCCCCCGGCGCCCGGCGGCUCGAGCCCGGGUAAGUGUCAGUCGUCUGCAUGCCGCCGGGCGCCAUGCCUGCAGGUCGACUCUAGAAAACAUG | -6.23
GGCUAGAACUAGUGGAUCCCCCGGCGCCCGGCGGCUCGAGCCCGGGUAAGGUCGCACAGUCUGCAUGCCGCCGGGCGCCAUGCCUGCAGGUCGACUCUAGAAAACAUG | < -6.09
GGCUAGAACUAGUGGAUCCCCCGGCGCCCGGCGGCUCGAGCCCGGGUAAGUUACAGUGGUCUGCAUGCCGCCGGGCGCCAUGCCUGCAGGUCGACUCUAGAAAACAUG | -6.33
GGCUAGAACUAGUGGAUCCCCCGGCGCCCGGCGGCUCGAGCCCGGGUAAGUUGAAAUCGUCUGCAUGCCGCCGGGCGCCAUGCCUGCAGGUCGACUCUAGAAAACAUG | -5.61
GGCUAGAACUAGUGGAUCCCCCGGCGCCCGGCGGCUCGAGCCCGGGUAAGGUCAGAACGUCUGCAUGCCGCCGGGCGCCAUGCCUGCAGGUCGACUCUAGAAAACAUG | < -6.42
GGCUAGAACUAGUGGAUCCCCCGGCGCCCGGCGGCUCGAGCCCGGGUAAGUUAAGGAGGUCUGCAUGCCGCCGGGCGCCAUGCCUGCAGGUCGACUCUAGAAAACAUG | -5.58
GGCUAGAACUAGUGGAUCCCCCGGCGCCCGGCGGCUCGAGCCCGGGUAAGUUUAUAGCGUCUGCAUGCCGCCGGGCGCCAUGCCUGCAGGUCGACUCUAGAAAACAUG | < -7.08
GGCUAGAACUAGUGGAUCCCCCGGCGCCCGGCGGCUCGAGCCCGGGUAAGUUUGAGAAGUCUGCAUGCCGCCGGGCGCCAUGCCUGCAGGUCGACUCUAGAAAACAUG | < -7.02

Reformatted in CSV form: part of the list above
Sequence,binding signal (log2 enrichment (interaction score))
GGCUAGAACUAGUGGAUCCCCCGGCGCCCGGCGGCUCGAGCCCGGGUAAGGUCAGAACGUCUGCAUGCCGCCGGGCGCCAUGCCUGCAGGUCGACUCUAGAAAACAUG,< -6.42
GGCUAGAACUAGUGGAUCCCCCGGCGCCCGGCGGCUCGAGCCCGGGUAAGUUAAGGAGGUCUGCAUGCCGCCGGGCGCCAUGCCUGCAGGUCGACUCUAGAAAACAUG,-5.58
